The target in experiment [1] is T1, iASPP-V5 (transiently overexpressed) (UniProt Q8WUF5).
T1 sequence: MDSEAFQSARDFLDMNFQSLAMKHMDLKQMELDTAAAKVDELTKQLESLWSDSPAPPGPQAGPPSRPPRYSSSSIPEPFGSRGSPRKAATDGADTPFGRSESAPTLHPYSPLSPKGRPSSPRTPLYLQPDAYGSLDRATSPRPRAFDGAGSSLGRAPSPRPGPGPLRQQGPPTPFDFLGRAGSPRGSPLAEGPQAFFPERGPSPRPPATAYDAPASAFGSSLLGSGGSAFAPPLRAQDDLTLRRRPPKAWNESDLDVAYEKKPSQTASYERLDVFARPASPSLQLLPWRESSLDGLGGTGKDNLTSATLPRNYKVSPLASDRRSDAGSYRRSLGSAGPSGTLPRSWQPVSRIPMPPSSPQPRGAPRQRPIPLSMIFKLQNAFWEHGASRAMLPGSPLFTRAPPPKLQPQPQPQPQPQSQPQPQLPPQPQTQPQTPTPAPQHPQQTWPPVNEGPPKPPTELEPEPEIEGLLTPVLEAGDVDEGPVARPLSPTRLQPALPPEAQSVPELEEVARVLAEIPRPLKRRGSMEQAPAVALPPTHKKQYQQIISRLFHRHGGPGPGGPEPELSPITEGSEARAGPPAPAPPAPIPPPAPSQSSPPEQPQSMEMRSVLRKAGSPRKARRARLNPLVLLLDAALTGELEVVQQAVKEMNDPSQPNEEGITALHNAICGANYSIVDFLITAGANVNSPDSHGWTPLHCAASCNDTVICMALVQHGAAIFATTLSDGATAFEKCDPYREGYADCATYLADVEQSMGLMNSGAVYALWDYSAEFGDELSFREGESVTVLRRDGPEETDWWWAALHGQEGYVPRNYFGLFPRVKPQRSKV
In words: co-IP; HCT116 transiently transfected with iASPP-V5 or empty vector, 20 uM cisplatin for 24 h; immunoprecipitation with anti-V5 antibody, immunoblot of endogenous CBP.

Sequences of proteins named here, by UniProt entry; tags and fusion partners are left off.
UniProt Q09472: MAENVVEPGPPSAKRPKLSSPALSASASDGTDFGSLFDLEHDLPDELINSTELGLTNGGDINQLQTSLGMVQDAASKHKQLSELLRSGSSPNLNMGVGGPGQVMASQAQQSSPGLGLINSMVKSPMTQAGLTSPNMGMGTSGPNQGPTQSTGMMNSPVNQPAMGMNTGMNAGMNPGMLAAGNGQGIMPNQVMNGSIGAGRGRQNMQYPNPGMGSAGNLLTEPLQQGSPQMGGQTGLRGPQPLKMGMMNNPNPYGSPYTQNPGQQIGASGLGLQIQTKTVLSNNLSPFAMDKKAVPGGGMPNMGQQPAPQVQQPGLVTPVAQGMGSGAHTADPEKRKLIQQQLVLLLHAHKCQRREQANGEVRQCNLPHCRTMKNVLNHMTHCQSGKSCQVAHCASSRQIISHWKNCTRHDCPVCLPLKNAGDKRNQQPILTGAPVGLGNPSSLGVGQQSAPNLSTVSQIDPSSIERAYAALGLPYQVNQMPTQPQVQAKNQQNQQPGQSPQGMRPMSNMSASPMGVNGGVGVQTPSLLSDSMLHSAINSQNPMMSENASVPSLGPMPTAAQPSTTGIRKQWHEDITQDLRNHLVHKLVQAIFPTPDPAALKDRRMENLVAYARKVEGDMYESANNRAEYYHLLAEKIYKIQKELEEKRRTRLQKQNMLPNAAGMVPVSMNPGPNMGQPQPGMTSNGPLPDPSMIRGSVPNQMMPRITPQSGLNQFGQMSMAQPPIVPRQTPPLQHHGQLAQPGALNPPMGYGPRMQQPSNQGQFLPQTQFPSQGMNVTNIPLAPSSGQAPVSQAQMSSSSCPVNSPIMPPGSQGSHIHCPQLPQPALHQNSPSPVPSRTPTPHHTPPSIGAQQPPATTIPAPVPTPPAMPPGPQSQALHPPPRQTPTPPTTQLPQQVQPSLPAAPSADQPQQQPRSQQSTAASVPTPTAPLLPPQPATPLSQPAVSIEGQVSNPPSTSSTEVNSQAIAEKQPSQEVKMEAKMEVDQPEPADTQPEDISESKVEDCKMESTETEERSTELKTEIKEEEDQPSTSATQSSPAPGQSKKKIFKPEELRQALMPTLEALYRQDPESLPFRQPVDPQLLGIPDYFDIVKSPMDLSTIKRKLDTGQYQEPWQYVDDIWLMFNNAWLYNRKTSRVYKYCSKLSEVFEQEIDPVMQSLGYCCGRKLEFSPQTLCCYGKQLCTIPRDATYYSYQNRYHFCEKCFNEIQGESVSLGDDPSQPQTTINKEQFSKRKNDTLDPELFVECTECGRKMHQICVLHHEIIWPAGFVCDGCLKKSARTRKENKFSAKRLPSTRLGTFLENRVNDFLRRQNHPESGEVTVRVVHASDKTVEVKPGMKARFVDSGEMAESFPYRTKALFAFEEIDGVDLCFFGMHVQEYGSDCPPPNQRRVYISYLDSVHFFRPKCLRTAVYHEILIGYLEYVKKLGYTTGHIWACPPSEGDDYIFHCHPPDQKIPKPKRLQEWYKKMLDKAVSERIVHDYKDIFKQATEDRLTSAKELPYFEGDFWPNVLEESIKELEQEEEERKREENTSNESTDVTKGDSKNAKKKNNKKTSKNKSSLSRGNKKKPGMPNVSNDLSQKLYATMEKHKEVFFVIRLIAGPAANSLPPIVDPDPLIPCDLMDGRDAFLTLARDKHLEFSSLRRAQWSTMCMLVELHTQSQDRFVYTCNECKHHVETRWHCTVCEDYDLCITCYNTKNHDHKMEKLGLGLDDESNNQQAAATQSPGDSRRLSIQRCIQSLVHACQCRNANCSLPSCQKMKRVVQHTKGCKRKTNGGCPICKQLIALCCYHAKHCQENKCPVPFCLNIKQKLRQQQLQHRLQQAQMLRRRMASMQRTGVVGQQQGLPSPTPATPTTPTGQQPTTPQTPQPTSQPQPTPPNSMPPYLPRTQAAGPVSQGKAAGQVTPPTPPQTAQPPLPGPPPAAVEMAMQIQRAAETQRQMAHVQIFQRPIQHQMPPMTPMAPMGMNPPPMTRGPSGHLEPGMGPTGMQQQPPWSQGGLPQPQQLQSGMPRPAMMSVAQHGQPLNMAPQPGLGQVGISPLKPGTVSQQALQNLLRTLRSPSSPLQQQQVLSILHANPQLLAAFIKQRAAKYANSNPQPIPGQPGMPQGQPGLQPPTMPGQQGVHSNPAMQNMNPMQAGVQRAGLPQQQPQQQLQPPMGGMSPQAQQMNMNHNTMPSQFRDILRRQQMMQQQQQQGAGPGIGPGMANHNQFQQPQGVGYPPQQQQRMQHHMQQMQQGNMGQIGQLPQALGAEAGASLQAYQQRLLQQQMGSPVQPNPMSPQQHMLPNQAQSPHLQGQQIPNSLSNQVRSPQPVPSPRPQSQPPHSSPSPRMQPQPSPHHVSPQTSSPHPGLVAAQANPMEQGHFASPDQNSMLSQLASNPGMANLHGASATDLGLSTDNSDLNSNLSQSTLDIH
UniProt Q92793: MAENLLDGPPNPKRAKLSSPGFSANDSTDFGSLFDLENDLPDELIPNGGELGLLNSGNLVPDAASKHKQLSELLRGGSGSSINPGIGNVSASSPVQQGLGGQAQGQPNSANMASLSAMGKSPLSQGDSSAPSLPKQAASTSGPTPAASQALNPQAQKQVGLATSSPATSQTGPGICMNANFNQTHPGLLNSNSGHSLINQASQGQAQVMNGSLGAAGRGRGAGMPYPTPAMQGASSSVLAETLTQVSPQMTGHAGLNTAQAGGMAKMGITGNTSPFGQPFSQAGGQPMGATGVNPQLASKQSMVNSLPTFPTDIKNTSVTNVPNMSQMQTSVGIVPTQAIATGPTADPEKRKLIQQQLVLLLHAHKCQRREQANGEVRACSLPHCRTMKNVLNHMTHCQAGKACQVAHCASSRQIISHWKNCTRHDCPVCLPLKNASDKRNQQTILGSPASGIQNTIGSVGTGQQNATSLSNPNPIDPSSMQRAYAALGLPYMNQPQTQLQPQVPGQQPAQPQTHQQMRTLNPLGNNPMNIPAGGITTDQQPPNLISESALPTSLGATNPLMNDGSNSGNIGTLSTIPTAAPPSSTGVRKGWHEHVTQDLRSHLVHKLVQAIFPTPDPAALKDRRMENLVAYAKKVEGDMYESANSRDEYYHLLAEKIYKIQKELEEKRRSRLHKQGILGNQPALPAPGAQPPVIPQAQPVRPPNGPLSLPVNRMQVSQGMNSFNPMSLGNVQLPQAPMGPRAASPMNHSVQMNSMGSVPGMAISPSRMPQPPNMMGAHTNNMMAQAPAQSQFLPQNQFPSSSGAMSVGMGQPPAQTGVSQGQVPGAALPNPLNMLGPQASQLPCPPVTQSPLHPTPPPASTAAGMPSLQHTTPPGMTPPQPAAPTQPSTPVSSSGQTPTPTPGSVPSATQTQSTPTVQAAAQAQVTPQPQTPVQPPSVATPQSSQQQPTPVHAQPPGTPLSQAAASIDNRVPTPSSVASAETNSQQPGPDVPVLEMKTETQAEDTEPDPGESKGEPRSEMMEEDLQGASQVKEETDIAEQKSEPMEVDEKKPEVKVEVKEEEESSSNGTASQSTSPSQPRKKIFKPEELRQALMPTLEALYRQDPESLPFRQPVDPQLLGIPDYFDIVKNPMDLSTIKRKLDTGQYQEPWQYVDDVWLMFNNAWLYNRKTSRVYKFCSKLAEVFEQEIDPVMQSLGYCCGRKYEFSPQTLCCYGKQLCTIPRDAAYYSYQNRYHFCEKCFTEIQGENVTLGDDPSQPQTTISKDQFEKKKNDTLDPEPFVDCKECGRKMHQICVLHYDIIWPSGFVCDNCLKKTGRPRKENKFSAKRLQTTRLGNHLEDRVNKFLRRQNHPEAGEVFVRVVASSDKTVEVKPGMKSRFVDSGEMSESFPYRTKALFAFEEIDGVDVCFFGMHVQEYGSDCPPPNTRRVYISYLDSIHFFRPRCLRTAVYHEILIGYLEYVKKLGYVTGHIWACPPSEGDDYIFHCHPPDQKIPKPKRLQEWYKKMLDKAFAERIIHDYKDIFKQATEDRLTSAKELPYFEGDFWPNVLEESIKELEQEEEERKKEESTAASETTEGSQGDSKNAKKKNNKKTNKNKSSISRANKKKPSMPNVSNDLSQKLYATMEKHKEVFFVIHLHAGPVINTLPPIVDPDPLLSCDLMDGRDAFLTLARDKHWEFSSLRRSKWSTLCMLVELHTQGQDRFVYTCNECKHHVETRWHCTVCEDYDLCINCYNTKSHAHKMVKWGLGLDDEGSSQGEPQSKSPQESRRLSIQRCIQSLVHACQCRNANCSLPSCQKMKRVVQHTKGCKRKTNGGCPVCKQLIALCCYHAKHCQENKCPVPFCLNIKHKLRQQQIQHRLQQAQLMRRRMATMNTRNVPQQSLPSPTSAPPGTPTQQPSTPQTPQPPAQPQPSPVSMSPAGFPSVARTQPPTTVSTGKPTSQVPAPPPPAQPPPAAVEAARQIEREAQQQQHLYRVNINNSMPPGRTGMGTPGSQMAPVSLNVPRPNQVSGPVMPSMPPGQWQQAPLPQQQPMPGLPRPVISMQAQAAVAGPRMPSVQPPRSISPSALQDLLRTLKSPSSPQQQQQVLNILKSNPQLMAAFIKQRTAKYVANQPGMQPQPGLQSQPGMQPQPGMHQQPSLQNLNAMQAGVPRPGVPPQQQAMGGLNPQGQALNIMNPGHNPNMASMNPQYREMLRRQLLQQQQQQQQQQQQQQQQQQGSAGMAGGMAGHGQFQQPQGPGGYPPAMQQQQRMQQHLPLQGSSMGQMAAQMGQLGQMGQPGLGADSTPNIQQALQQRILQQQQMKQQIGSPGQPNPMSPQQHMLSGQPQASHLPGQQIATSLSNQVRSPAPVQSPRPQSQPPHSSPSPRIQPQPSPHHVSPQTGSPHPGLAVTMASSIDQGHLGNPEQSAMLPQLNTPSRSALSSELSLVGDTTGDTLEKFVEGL

The target of experiment [2] is p300 (histone acetyltransferase), endogenous (human (endogenous in HCT116)) (UniProt Q09472). Nature of the experiment: co-IP; endogenous proteins; lysates of HCT116 cells treated with 20 uM cisplatin for 16 h; control reaction with IgG antibody.
Experiment [3] shares this target. Nature of the experiment: condition: only untreated cells (normal growth conditions, no cisplatin); co-IP; endogenous proteins; lysates of untreated HCT116 cells (normal growth conditions); control reaction with IgG antibody.
Substrate in experiment [4]: CBP (CREB-binding protein), endogenous (human (endogenous in HCT116)) (UniProt Q92793)
In words: co-IP; HCT116 transiently transfected with BRMS1-GFP alone or with iASPP-V5; 20 uM cisplatin for 16 h, 20 uM MG132 for the last 4 h; immunoprecipitation with anti-CBP antibody or isotype-matched IgG, overnight at 4 C.

Consider four molecules from PMC4669821.

These are yes or no findings as the source states them, for the method shown. Binding seen in cells or lysates may run through a third protein. Some results given as binding are weak or reduced against the parent protein; the word gives no strength. For some assays here: Where a sequence is shown, tags or fusion partners need not be part of it.

For “CBP (CREB-binding protein), endogenous (from UniProt Q92793 1-2442)”, the binding entry in experiment [1] is given as “binds”.

B1: iASPP (inhibitory apoptosis stimulating protein of p53), endogenous (protein, UniProt Q8WUF5 1-828)
chain: MDSEAFQSARDFLDMNFQSLAMKHMDLKQMELDTAAAKVDELTKQLESLWSDSPAPPGPQAGPPSRPPRYSSSSIPEPFGSRGSPRKAATDGADTPFGRSESAPTLHPYSPLSPKGRPSSPRTPLYLQPDAYGSLDRATSPRPRAFDGAGSSLGRAPSPRPGPGPLRQQGPPTPFDFLGRAGSPRGSPLAEGPQAFFPERGPSPRPPATAYDAPASAFGSSLLGSGGSAFAPPLRAQDDLTLRRRPPKAWNESDLDVAYEKKPSQTASYERLDVFARPASPSLQLLPWRESSLDGLGGTGKDNLTSATLPRNYKVSPLASDRRSDAGSYRRSLGSAGPSGTLPRSWQPVSRIPMPPSSPQPRGAPRQRPIPLSMIFKLQNAFWEHGASRAMLPGSPLFTRAPPPKLQPQPQPQPQPQSQPQPQLPPQPQTQPQTPTPAPQHPQQTWPPVNEGPPKPPTELEPEPEIEGLLTPVLEAGDVDEGPVARPLSPTRLQPALPPEAQSVPELEEVARVLAEIPRPLKRRGSMEQAPAVALPPTHKKQYQQIISRLFHRHGGPGPGGPEPELSPITEGSEARAGPPAPAPPAPIPPPAPSQSSPPEQPQSMEMRSVLRKAGSPRKARRARLNPLVLLLDAALTGELEVVQQAVKEMNDPSQPNEEGITALHNAICGANYSIVDFLITAGANVNSPDSHGWTPLHCAASCNDTVICMALVQHGAAIFATTLSDGATAFEKCDPYREGYADCATYLADVEQSMGLMNSGAVYALWDYSAEFGDELSFREGESVTVLRRDGPEETDWWWAALHGQEGYVPRNYFGLFPRVKPQRSKV
Take B1: the binding entry in experiment [2] was “binds”; in experiment [3] it was “no binding”.

B2: TAp73, endogenous (protein, UniProt O15350 1-636)
chain: MAQSTATSPDGGTTFEHLWSSLEPDSTYFDLPQSSRGNNEVVGGTDSSMDVFHLEGMTTSVMAQFNLLSSTMDQMSSRAASASPYTPEHAASVPTHSPYAQPSSTFDTMSPAPVIPSNTDYPGPHHFEVTFQQSSTAKSATWTYSPLLKKLYCQIAKTCPIQIKVSTPPPPGTAIRAMPVYKKAEHVTDVVKRCPNHELGRDFNEGQSAPASHLIRVEGNNLSQYVDDPVTGRQSVVVPYEPPQVGTEFTTILYNFMCNSSCVGGMNRRPILIIITLEMRDGQVLGRRSFEGRICACPGRDRKADEDHYREQQALNESSAKNGAASKRAFKQSPPAVPALGAGVKKRRHGDEDTYYLQVRGRENFEILMKLKESLELMELVPQPLVDSYRQQQQLLQRPSHLQPPSYGPVLSPMNKVHGGMNKLPSVNQLVGQPPPHSSAATPNLGPVGPGMLNNHGHAVPANGEMSSSHSAQSMVSGSHCTPPPPYHADPSLVSFLTGLGCPNCIEYFTSQGLQSIYHLQNLTIEDLGALKIPEQYRMTIWRGLQDLKQGHDYSTAQQLLRSSNAATISIGGSGELQRQRVMEAVHFRVRHTITIPNRGGPGGGPDEWADFGFDLPDCKARKQPIKEEFTEAEIH
In the case of B2, the binding result in experiment [2] is listed as “binds”.

B3: BRMS1-GFP (protein, UniProt Q9HCU9 1-246)
chain: MPVQPPSKDTEEMEAEGDSAAEMNGEEEESEEERSGSQTESEEESSEMDDEDYERRRSECVSEMLDLEKQFSELKEKLFRERLSQLRLRLEEVGAERAPEYTEPLGGLQRSLKIRIQVAGIYKGFCLDVIRNKYECELQGAKQHLESEKLLLYDTLQGELQERIQRLEEDRQSLDLSSEWWDDKLHARGSSRSWDSLPPSKRKKAPLVSGPYIVYMLQEIDILEDWTAIKKARAAVSPQKRKSDGP
With B3, the binding result in experiment [4] is listed as “binds”.
